Structures can show the parent of a compound that is named as a salt.
Test system: back skin of SD rat
Test: Local anesthetic effect by subcutaneous infiltration (back skin, Von Frey fiber 100 g)
Assay type: in vivo
Conditions: SD rats, 0.5 mL subcutaneous in saline; compounds 6 mmol/L, controls 0.75% (22 mmol/L) and 2% (74 mmol/L)
Description: After the back of SD rat weighing 250-300 g (half female and half male) was shaved and disinfected, a circle with a diameter of about 1.5 cm was drawn on the side of the exposed back, and the circle is divided into 6 equal parts. […] Among the Von Frey fiber yarns, the one with a strength of 100 g was bound to the needle for local skin stimulation. One minute After the drug was injected, the above method was used to stimulate in 6 divisions. […] If back skin contraction was observed, the local anesthetic effect was considered as loss. […] Each compound was tested with 10 rats.

SMILES: CCN(CC)CC(=O)Nc1c(C)cccc1C [2% lidocaine hydrochloride, lidocaine hydrochloride, reference compound]
- Duration of local anesthesia (median): 4 h

Reference: patent US20220135526A1, “QUATERNARY AMMONIUM SALT COMPOUND, PREPARATION METHOD THEREFOR AND USE THEREOF” (WEST CHINA HOSPITAL, SICHUAN UNIVERSITY, priority 2019, published 2022)
